The supplement of paper PMC10849652
This is one part of the list.

The chains behind the UniProt entries cited, without tags or fusion partners. Where a name states a change or a piece, a line headed by the entry shows the natural chain unless it says otherwise.
UniProt Q5JUR7: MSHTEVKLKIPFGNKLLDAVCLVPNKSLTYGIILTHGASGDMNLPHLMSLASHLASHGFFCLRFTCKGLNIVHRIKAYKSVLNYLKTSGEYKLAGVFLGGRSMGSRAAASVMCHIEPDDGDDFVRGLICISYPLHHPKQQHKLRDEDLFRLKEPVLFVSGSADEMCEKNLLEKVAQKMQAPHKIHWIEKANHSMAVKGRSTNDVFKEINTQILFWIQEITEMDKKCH
UniProt P15923: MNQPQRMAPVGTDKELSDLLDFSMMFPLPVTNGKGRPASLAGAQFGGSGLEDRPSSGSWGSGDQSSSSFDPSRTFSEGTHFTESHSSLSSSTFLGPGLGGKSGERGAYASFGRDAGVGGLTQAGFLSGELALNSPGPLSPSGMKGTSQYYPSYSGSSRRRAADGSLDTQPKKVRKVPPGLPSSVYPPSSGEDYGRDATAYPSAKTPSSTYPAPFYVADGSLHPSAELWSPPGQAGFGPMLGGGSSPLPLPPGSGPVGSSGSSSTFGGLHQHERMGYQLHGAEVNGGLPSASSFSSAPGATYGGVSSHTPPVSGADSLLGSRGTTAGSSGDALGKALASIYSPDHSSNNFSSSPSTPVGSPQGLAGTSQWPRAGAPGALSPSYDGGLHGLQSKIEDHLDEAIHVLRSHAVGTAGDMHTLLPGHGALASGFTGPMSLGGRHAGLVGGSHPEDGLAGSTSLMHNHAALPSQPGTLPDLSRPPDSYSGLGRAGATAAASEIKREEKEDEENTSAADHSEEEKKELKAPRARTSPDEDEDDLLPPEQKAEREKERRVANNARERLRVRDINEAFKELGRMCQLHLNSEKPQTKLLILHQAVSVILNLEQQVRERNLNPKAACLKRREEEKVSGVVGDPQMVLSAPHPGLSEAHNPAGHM
UniProt P20226, whole entry, looked up: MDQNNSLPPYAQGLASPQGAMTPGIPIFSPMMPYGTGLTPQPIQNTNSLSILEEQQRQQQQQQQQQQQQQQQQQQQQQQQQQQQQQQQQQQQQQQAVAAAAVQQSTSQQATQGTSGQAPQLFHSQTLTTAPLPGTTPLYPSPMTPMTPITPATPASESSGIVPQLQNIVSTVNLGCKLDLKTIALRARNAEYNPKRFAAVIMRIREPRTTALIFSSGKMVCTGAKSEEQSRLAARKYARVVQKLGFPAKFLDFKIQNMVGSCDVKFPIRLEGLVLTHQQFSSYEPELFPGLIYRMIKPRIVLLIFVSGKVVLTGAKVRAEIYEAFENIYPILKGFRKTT
UniProt Q9P2M4: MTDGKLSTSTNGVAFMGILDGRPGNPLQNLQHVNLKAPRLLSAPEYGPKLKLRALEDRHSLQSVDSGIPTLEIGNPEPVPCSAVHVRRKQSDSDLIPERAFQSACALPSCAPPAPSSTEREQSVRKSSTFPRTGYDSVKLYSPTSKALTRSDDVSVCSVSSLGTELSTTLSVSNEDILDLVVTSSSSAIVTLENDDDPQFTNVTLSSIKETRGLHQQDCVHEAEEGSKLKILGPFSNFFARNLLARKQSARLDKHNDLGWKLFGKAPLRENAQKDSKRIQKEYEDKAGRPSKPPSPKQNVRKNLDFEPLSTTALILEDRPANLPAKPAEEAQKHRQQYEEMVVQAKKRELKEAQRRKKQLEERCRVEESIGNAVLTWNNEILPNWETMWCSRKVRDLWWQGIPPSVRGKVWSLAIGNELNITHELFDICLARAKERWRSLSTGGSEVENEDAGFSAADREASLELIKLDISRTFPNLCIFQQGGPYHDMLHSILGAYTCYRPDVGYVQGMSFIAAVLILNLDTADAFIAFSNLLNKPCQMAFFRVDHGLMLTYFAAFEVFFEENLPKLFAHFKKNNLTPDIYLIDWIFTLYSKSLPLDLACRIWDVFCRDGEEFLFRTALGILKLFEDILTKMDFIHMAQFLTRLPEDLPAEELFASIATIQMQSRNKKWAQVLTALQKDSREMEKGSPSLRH
UniProt Q5TEJ8: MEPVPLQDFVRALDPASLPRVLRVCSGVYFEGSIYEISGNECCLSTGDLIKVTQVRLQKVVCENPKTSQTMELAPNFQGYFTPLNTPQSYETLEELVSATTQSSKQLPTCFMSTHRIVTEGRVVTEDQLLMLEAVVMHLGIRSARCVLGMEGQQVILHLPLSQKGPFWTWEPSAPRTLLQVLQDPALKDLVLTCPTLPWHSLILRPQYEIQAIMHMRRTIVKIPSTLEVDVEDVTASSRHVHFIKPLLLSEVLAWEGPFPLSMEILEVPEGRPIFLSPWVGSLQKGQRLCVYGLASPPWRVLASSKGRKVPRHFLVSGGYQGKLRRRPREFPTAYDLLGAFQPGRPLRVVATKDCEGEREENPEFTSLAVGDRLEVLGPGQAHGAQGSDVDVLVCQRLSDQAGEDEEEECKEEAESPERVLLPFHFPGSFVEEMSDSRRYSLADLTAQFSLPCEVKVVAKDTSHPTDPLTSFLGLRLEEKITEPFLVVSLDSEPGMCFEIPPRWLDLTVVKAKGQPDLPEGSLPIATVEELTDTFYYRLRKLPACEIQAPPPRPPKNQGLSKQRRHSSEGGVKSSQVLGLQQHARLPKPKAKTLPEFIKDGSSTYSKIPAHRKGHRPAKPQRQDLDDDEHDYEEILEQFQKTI
UniProt Q01664: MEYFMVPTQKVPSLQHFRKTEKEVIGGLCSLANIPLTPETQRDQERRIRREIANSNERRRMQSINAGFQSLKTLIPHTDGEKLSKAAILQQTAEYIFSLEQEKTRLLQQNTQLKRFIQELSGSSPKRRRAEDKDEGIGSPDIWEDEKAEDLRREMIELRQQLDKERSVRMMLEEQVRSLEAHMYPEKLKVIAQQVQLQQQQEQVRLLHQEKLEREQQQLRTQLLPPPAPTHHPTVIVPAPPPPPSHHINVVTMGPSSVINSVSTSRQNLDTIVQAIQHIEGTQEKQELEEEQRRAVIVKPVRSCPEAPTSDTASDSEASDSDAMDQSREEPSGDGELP
UniProt Q13428: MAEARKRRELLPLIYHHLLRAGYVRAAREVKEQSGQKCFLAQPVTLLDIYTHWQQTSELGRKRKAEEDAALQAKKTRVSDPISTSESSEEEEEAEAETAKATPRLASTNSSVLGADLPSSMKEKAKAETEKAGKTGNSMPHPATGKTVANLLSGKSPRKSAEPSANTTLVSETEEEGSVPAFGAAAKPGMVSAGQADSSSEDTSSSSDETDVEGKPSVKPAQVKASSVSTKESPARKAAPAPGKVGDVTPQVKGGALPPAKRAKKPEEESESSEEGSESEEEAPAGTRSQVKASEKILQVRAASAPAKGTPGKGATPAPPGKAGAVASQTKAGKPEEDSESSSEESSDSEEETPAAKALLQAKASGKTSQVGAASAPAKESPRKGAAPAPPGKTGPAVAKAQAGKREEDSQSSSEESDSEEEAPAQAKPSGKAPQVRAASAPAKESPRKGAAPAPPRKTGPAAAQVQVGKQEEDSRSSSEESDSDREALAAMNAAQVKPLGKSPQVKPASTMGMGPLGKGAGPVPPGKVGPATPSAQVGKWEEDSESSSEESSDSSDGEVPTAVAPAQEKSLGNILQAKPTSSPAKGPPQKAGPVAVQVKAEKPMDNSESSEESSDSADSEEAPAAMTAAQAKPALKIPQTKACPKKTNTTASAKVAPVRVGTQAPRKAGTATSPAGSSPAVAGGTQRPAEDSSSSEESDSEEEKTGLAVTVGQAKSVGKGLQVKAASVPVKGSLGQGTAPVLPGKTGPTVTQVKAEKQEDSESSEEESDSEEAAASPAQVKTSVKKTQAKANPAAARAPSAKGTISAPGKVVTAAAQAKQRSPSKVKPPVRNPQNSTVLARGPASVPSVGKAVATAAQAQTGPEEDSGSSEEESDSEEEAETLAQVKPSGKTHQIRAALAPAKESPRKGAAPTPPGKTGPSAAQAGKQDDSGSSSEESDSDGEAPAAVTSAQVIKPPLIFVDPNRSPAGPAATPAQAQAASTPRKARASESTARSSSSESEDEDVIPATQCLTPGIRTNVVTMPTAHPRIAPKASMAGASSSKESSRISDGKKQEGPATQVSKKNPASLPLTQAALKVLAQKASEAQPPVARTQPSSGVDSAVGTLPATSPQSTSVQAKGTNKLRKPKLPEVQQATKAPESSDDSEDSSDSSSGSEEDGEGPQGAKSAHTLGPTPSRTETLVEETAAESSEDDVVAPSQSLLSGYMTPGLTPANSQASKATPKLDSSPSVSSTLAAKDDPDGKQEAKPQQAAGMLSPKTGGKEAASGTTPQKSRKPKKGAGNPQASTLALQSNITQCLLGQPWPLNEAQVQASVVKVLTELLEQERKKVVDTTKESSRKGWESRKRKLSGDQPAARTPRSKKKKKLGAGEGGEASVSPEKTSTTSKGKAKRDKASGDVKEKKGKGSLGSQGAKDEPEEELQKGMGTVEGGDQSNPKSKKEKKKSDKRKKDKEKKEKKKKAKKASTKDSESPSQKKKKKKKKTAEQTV
UniProt Q14186: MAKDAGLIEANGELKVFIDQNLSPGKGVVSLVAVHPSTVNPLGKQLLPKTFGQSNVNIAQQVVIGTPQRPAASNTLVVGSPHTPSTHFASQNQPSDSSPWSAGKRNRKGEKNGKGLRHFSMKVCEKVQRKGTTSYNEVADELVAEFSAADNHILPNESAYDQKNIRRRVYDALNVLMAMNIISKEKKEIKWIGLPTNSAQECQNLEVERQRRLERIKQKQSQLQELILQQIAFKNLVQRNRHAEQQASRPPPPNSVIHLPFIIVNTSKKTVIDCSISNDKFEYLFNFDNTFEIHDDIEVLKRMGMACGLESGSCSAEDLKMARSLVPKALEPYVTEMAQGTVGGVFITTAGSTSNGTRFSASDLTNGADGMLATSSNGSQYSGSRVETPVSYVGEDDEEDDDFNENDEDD
UniProt Q96EI5: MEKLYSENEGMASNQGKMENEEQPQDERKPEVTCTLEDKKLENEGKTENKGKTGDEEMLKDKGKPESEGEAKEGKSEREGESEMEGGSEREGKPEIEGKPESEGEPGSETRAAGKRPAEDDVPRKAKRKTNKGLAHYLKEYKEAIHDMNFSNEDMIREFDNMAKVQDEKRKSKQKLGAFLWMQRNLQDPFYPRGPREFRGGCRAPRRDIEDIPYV
UniProt Q96BZ9: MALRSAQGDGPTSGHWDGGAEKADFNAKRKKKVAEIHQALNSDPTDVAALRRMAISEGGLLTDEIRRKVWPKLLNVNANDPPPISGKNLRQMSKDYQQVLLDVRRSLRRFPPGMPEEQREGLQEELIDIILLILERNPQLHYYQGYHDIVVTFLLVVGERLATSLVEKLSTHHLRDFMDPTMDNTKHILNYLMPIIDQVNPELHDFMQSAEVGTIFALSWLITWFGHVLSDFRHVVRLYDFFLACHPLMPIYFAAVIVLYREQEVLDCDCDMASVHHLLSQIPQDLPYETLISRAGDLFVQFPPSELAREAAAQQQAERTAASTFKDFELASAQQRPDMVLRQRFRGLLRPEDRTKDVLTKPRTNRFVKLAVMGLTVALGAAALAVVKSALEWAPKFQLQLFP
UniProt Q8NHU6: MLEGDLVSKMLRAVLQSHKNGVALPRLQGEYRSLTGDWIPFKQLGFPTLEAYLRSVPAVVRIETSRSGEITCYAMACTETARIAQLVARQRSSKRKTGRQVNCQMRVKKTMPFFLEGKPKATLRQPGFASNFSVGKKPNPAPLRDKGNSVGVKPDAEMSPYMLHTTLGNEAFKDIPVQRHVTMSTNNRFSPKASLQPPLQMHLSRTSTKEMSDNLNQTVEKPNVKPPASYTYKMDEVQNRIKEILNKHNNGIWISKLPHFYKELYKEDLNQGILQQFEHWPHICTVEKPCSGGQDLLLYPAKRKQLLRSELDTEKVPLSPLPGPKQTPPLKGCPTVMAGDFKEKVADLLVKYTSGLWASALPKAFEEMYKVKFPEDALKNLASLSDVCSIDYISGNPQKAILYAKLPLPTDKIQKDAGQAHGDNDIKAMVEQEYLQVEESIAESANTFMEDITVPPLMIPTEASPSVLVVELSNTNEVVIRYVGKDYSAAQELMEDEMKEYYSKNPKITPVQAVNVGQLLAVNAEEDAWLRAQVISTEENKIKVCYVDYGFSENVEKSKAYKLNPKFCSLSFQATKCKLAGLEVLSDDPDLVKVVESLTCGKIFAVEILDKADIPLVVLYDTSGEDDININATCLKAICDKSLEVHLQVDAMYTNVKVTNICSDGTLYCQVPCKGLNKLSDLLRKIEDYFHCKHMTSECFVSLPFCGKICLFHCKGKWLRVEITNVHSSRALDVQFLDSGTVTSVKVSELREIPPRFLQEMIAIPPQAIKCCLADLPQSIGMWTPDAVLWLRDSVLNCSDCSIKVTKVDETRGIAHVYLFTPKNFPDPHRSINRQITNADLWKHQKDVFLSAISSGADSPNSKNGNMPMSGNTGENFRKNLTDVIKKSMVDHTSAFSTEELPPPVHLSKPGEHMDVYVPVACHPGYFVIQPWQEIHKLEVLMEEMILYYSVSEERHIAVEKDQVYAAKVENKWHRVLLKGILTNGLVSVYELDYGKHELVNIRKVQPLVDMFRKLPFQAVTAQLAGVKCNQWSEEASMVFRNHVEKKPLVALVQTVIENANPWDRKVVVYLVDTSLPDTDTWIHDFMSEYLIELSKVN

compound: CN1CCc2c(c3ccccc3n2Cc2ccc(C(=O)NO)cc2)C1 [Tubastatin A]; test: log2 fold change, soluble protein after heating vs DMSO (PISA); higher = thermal stabilisation; K562 cells, 10 uM, 30 min; active = over 0.2 and 3.5 SD of the protein, either way, in both replicates (recomputed)
Summary of the method: (§1)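 Soluble protein was defined as the supernatant after 21,000xg for 90 min. It came from K562 cells at 2×10^6 cells/mL given 10 μM compound for 30 min, heated in aliquots for 3 min across 48°C-58°C, pooled, and extracted in PBS with 0.5% NP-40 at 4°C, and was quantified by TMTpro 16plex LC-MS/MS with equalised channel sums. Thermal stability against control samples, from duplicates, is reported as log2 fold change.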

Question: How did the log2 fold change turn out when TEX30 (UniProt Q5JUR7) was run?
Answer: inactive: 0.022

Question: How did the log2 fold change turn out when TCF3 isoform 2 (UniProt P15923) was run?
Answer: inactive: 0.108

Question: TBP (UniProt P20226) was tested. Which log2 fold change did it give?
Answer: inactive: -0.014

Question: For TET2 (UniProt Q6N021), which log2 fold change is on record?
Answer: inactive: 0.307

Question: How did the log2 fold change turn out when TBC1D14 (UniProt Q9P2M4) was run?
Answer: inactive: -0.015

Question: Which log2 fold change does the source give for THEMIS2 (UniProt Q5TEJ8) here?
Answer: inactive: 0.064

Question: Which log2 fold change does the source give for TFAP4 (UniProt Q01664) here?
Answer: inactive: 0.038

Question: Which log2 fold change does the source give for TC2N (UniProt Q8N9U0) here?
Answer: inactive: 0.308

Question: Which log2 fold change does the source give for TCOF1 isoform 3 (UniProt Q13428) here?
Answer: inactive: 0.054

Question: With TFDP1 (UniProt Q14186) as the target, how does the log2 fold change read?
Answer: inactive: -0.099

Question: For TBCK (UniProt Q8TEA7), which log2 fold change is on record?
Answer: inactive: 0.076

Question: Which log2 fold change does the source give for TEDC2 (UniProt Q7L2K0) here?
Answer: inactive: 0.028

Question: With TFE3 (UniProt P19532) as the target, how does the log2 fold change read?
Answer: inactive: 0.014

Question: TCEAL1 isoform 2 (UniProt Q15170) was tested. Which log2 fold change did it give?
Answer: inactive: 0.015

Question: With TCF25 (UniProt Q9BQ70) as the target, how does the log2 fold change read?
Answer: inactive: 0.111

Question: For TFDP2 (UniProt Q14188), which log2 fold change is on record?
Answer: inactive: -0.016

Question: How did the log2 fold change turn out when TCOF1 isoform 6 (UniProt Q13428) was run?
Answer: inactive: -0.103

Question: For TCEAL4 isoform 2 (UniProt Q96EI5), which log2 fold change is on record?
Answer: inactive: 0.029

compound: CNC(=O)C1=CC=CC=C1NC2=NC(=NC=C2Cl)NC3=C(C=C(C=C3)N4CCOCC4)OC; test: as above
Summary of the method: as §1

Question: Which log2 fold change does the source give for TEX30 (UniProt Q5JUR7) here?
Answer: inactive: 0.015

Question: Which log2 fold change does the source give for TEX10 (UniProt Q9NXF1) here?
Answer: inactive: -0.022

Question: With TBC1D7 (UniProt Q9P0N9) as the target, how does the log2 fold change read?
Answer: inactive: 0.098

Question: TBC1D14 (UniProt Q9P2M4) was tested. Which log2 fold change did it give?
Answer: inactive: -0.246

Question: How did the log2 fold change turn out when TBC1D25 (UniProt Q3MII6) was run?
Answer: inactive: 0.095

Question: TIFA (UniProt Q96CG3) was tested. Which log2 fold change did it give?
Answer: inactive: 0.133

Question: Which log2 fold change does the source give for TDP1 (UniProt Q9NUW8) here?
Answer: inactive: -0.041

Question: THAP12 (UniProt O43422) was tested. Which log2 fold change did it give?
Answer: inactive: 0.082

Question: With TCEAL8 (UniProt Q8IYN2) as the target, how does the log2 fold change read?
Answer: inactive: -0.08

Question: For TBC1D9 (UniProt Q6ZT07), which log2 fold change is on record?
Answer: inactive: -0.037

Question: How did the log2 fold change turn out when TBC1D20 isoform 3 (UniProt Q96BZ9) was run?
Answer: inactive: 0.004

Question: TCOF1 isoform 3 (UniProt Q13428) was tested. Which log2 fold change did it give?
Answer: inactive: -0.007

Question: For TCP11L1 (UniProt Q9NUJ3), which log2 fold change is on record?
Answer: inactive: -0.131

Question: For TFDP1 (UniProt Q14186), which log2 fold change is on record?
Answer: inactive: -0.019

Question: TBCK (UniProt Q8TEA7) was tested. Which log2 fold change did it give?
Answer: inactive: -0.041

Question: With TFE3 (UniProt P19532) as the target, how does the log2 fold change read?
Answer: inactive: 0.006

Question: TDRD7 (UniProt Q8NHU6) was tested. Which log2 fold change did it give?
Answer: inactive: -0.032

Question: TCOF1 isoform 6 (UniProt Q13428) was tested. Which log2 fold change did it give?
Answer: inactive: -0.149

Question: Which log2 fold change does the source give for TCEAL4 isoform 2 (UniProt Q96EI5) here?
Answer: inactive: -0.058

compound: CNC(=O)c1ccc(Nc2ncc(C(F)(F)F)c(NCc3nccnc3N(C)S(C)(=O)=O)n2)cc1 [defactinib]; test: as above
Summary of the method: as §1

Question: Which log2 fold change does the source give for TEX30 (UniProt Q5JUR7) here?
Answer: inactive: -0.096

Question: With TCF3 isoform 2 (UniProt P15923) as the target, how does the log2 fold change read?
Answer: inactive: -0.119

Question: Which log2 fold change does the source give for TBP (UniProt P20226) here?
Answer: inactive: -0.003

Question: Which log2 fold change does the source give for TBC1D14 (UniProt Q9P2M4) here?
Answer: inactive: -0.383

Question: For TBC1D25 (UniProt Q3MII6), which log2 fold change is on record?
Answer: inactive: -0.029

Question: Which log2 fold change does the source give for TIFA (UniProt Q96CG3) here?
Answer: inactive: 0.133

Question: TFAP4 (UniProt Q01664) was tested. Which log2 fold change did it give?
Answer: inactive: -0.048

Question: How did the log2 fold change turn out when TBC1D9 (UniProt Q6ZT07) was run?
Answer: inactive: -0.412

Question: TC2N (UniProt Q8N9U0) was tested. Which log2 fold change did it give?
Answer: inactive: -0.341

Question: For TBC1D20 isoform 3 (UniProt Q96BZ9), which log2 fold change is on record?
Answer: inactive: -0.044

Question: How did the log2 fold change turn out when TFDP1 (UniProt Q14186) was run?
Answer: inactive: -0.184

Question: With TDRD3 isoform 3 (UniProt Q9H7E2) as the target, how does the log2 fold change read?
Answer: inactive: 0.443

Question: With TCEAL1 isoform 2 (UniProt Q15170) as the target, how does the log2 fold change read?
Answer: inactive: -0.063

Question: TCF25 (UniProt Q9BQ70) was tested. Which log2 fold change did it give?
Answer: inactive: -0.06

Question: With TDRD7 (UniProt Q8NHU6) as the target, how does the log2 fold change read?
Answer: inactive: -0.146

Question: Which log2 fold change does the source give for TCOF1 isoform 6 (UniProt Q13428) here?
Answer: inactive: 0.027

Question: For TCEAL4 isoform 2 (UniProt Q96EI5), which log2 fold change is on record?
Answer: inactive: -0.194

compound: CNCc1ccc(-c2[nH]c3cc(F)cc4c3c2CCNC4=O)cc1 [rucaparib]; test: as above
Summary of the method: as §1

Question: With TBC1D2 (UniProt Q9BYX2) as the target, how does the log2 fold change read?
Answer: inactive: 0.264

Question: How did the log2 fold change turn out when TCF3 isoform 2 (UniProt P15923) was run?
Answer: inactive: -0.104

Question: With TBP (UniProt P20226) as the target, how does the log2 fold change read?
Answer: inactive: 0.088

Question: With TEX10 (UniProt Q9NXF1) as the target, how does the log2 fold change read?
Answer: inactive: 0.573

Question: With TLE3 (UniProt Q04726) as the target, how does the log2 fold change read?
Answer: inactive: 0.128

Question: With TFIP11 (UniProt Q9UBB9) as the target, how does the log2 fold change read?
Answer: inactive: 0.045

Question: For TET2 (UniProt Q6N021), which log2 fold change is on record?
Answer: inactive: -0.051

Question: For TFAP4 (UniProt Q01664), which log2 fold change is on record?
Answer: inactive: 0.18

Question: Which log2 fold change does the source give for TBC1D20 isoform 3 (UniProt Q96BZ9) here?
Answer: inactive: 0.05

Question: For TCOF1 isoform 3 (UniProt Q13428), which log2 fold change is on record?
Answer: inactive: -0.065

Question: With TCP11L1 (UniProt Q9NUJ3) as the target, how does the log2 fold change read?
Answer: inactive: 0.103

Question: TFDP1 (UniProt Q14186) was tested. Which log2 fold change did it give?
Answer: inactive: 0.037

Question: TFDP2 (UniProt Q14188) was tested. Which log2 fold change did it give?
Answer: inactive: 0.2

Question: For TDRD7 (UniProt Q8NHU6), which log2 fold change is on record?
Answer: inactive: 0.096

Question: For TCOF1 isoform 6 (UniProt Q13428), which log2 fold change is on record?
Answer: inactive: -0.022

Question: TCAF2 (UniProt A6NFQ2) was tested. Which log2 fold change did it give?
Answer: inactive: 0.588

Question: How did the log2 fold change turn out when TCEAL4 isoform 2 (UniProt Q96EI5) was run?
Answer: inactive: -0.067
